Experimental data taken from PubChem BioAssay AID1745850 (National Center for Advancing Translational Sciences (NCATS), 2022).
Among all 2,100 compounds or so, about 260 (12%) were called active. The inconclusive results got no clear call from the source; some entries with a clear call stand among them for comparison. The call rests on the fitted dose curve; in most records, active means well fitted cell-killing curve with a large enough effect; inconclusive means small, poorly fitted or top-dose-only effect, or effect the other way; inactive means flat fitted curve, though single readings scatter. Where the call is inconclusive, the potency comes from a doubtful curve fit.

Test: Viability Counterscreen for Confirmatory qHTS for Inhibitors of ATXN expression; further: nearly all actives have a fitted effect of over 50% in size
Details: HEK-293 ATXN2-luc cells viability, CellTiter-Fluor, 24 h; activity change, negative = cytotoxicity: at 11.5 µM (top of the series) unless noted
How it was run: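 Cells with an ATXN2-luciferase reporter were dosed in a dilution series for 24 h at 37 degrees C. Viability was read first with Gly-Phe-AFC at 25 uM final (fluorescence, ex 405/em 540), then SteadyGlo luminescence. Medium-only wells defined 100% inhibition.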
Potency means the concentration at half of the fitted maximal effect.

Row | Compound | Potency | activity change, negative = cytotoxicity
1 | COc1cc(/C=C/C(=O)CC(=O)/C=C/c2ccc(O)c(OC)c2)ccc1O | inconclusive: 39.8 µM [cytotoxic, single point] | –
2 | N#C/C(=C\C=C\c1ccccc1[N+](=O)[O-])C(=O)NCc1ccccc1 | inconclusive: 2.82 µM [cytotoxic, partial curve, poor fit] | –
3 | O=C1C(SCCO)=C(SCCO)C(=O)c2ccccc21 | inconclusive: 39.8 µM [rising, single point] | –
4 | Cc1cc(O)c(C(C)C)cc1N=Cc1ccc(N(C)C)cc1 | – | inactive: -5.37%
5 | CC(SC(C)C(=O)NN=Cc1cccc(Cl)c1)C(=O)NN=Cc1cccc(Cl)c1 (stereo not given) | – | inactive: -28.8%
6 | O=C(Nc1ccc(N2CCN(C(=O)c3ccccc3)CC2)c(Cl)c1)c1ccc(Br)o1 | inconclusive: 3.16 µM [cytotoxic, single point] | –
7 | COc1ccc(CCNC(=O)c2cc3c(F)cccc3s2)cc1OC | – | inactive: -30% [at 57.5 µM]
8 | Cc1ccc(S(=O)(=O)c2nc(S(C)(=O)=O)sc2N2CCCCC2C)cc1 (stereo not given) | – | inactive: -21.7% [at 57.5 µM]
9 | O=C(N/N=C\c1cc(Br)ccc1O)c1ccc(S(=O)(=O)N2CCCCC2)cc1 | – | inactive: 7.84%
10 | CN(C)CCNC(=O)c1ccc(Cl)c2cc3ccccc3nc12 | active: 10 µM | –
11 | COc1ccc(CC(N)c2csc(Nc3ccc(C(=O)c4ccccc4)cc3)n2)cc1 (stereo not given) | – | inactive: -23%
12 | Nc1c(C(=O)NCc2ccccc2)c2nc3ccccc3nc2n1-c1ccc2c(c1)OCO2 | – | inactive: -23.9%
13 | Cc1ccc(C)c(N2CCN(C(=O)C34CC5CC(C3)CC(n3nnc(C)n3)(C5)C4)CC2)c1 | inconclusive: 31.6 µM [cytotoxic, single point] | –
14 | CC(C)(C)OC(=O)CNC(=O)c1[nH]cnc1C(=O)Nc1ccc(CNC(=O)OC(C)(C)C)cc1 | inconclusive: 39.8 µM [cytotoxic, single point] | –
15 | COc1ccc(/C(C)=N/NC(=O)c2cccc(S(=O)(=O)N3CCCC3)c2)c(O)c1 | inconclusive: 10 µM [cytotoxic, partial curve, poor fit] | –
16 | O=C(/C=C/c1ccccc1[N+](=O)[O-])c1ccccc1Br | inconclusive: 7.08 µM [cytotoxic, single point] | –
17 | CC(C)Cn1c(/C=N/Nc2nc3ccccc3[nH]2)nc2ccccc21 | active: 11.2 µM | –
18 | C=CCOC(=O)C1=C(C)NC(SCC)=C(C#N)C1c1ccc(Cl)cc1 (stereo not given) | inconclusive: 12.6 µM [cytotoxic, partial curve] | –
19 | CC1=C(C(=O)N(C(C)C)C(C)C)CC(CC(=O)NC2CCCC2)C(=O)N1Cc1ccc(C(C)(C)C)cc1 (stereo not given) | inconclusive: 39.8 µM [cytotoxic, single point] | –
20 | COc1cc(C(=O)OC(C)C(=O)N2CCc3ccccc3C2)ccc1OCC(=O)N1CCOCC1 (stereo not given) | – | inactive: -8.5%
21 | O=C(c1ccoc1)N1CCN(c2cc(-c3ccccc3)nc3cc(-c4ccccc4)nn23)CC1 | inconclusive: 35.5 µM [cytotoxic, single point] | –
22 | O=C(NNCc1ccccc1)c1ccccc1 | – | inactive: -14.6% [at 57.5 µM]
23 | COc1cccc2nc3c(C(=O)NCCN(C)C)cccc3cc12 | inconclusive: 14.1 µM [cytotoxic, partial curve] | –
24 | COc1ccc(Cc2nnc(N/N=C/c3ccc(O)cc3)[nH]c2=O)cc1OC | inconclusive: 2.24 µM [cytotoxic, partial curve] | –

Molecules above that contain a tert-butyl group (two):
Row | Compound | Potency | activity change, negative = cytotoxicity
14 | CC(C)(C)OC(=O)CNC(=O)c1[nH]cnc1C(=O)Nc1ccc(CNC(=O)OC(C)(C)C)cc1 | inconclusive: 39.8 µM [cytotoxic, single point] | –
19 | CC1=C(C(=O)N(C(C)C)C(C)C)CC(CC(=O)NC2CCCC2)C(=O)N1Cc1ccc(C(C)(C)C)cc1 (stereo not given) | inconclusive: 39.8 µM [cytotoxic, single point] | –

(further entries)

Row | Compound | Potency | activity change, negative = cytotoxicity
25 | COc1ccccc1/C=C\C(=O)NCC(=O)N/N=C/c1cccc(OC)c1O | inconclusive: 20 µM [cytotoxic, partial curve] | –
26 | O=C(N/N=C1\CCCc2c1[nH]c1ccc(Cl)cc21)c1ccncc1 | inconclusive: 35.5 µM [cytotoxic, partial curve, poor fit] | –
27 | Cc1ccc(/C=C2\SC(=S)N(CCCC(=O)Nc3nccs3)C2=O)cc1 | inconclusive: 28.2 µM [cytotoxic, partial curve] | –
28 | N=c1c2c(n(Cc3ccc(Br)cc3)c3c1CCC3)CCCC2 | inconclusive: 1.41 µM [cytotoxic, partial curve] | –
29 | Cc1ccc(-n2ncc(C(=O)Nc3ccc(Cl)cc3)c2C2CCNCC2)cc1C | inconclusive: 39.8 µM [cytotoxic, single point] | –
30 | CN(C)C(=O)c1cccc(-c2cnc3c(NC=O)cc(-c4ccc(F)cc4)cn23)c1 | – | inactive: -13.3%
31 | C[C@@H]1CC=C[C@@H]2[C@H]1C(=O)N(Cc1ccccc1)[C@H]2c1ccccc1Br | – | inactive: -29.3% [at 57.5 µM]
32 | CCCCOc1ccc(CSC(=N)N)cc1Cl | inconclusive: 39.8 µM [cytotoxic, single point] | –
33 | COc1ccc(OC)c(NC(=O)CSc2nnnn2-c2ccc3c(c2)OCO3)c1 | – | inactive: -28.3% [at 57.5 µM]
34 | CCCCCc1ccc(OCCCC[n+]2cccc(C)c2)c(CCCCC)c1 | inconclusive: 17.8 µM [cytotoxic, single point] | –
35 | Cc1ccc(C(=O)N2CCN(c3ccc(NC(=S)NC(=O)c4cccs4)cc3)CC2)cc1 | – | inactive: -13.9%
36 | O=C(N/N=C/c1sc(N2CCOCC2)nc1-c1ccccc1)c1ccccc1O | inconclusive: 25.1 µM [cytotoxic, partial curve] | –
37 | Cc1ccc(S(=O)(=O)c2cc3cc(Br)ccc3oc2=O)cc1 | – | inactive: -3.3% [at 57.5 µM]
38 | O=C(CNC(=O)c1ccc(F)cc1)N/N=C/c1cc(Br)ccc1OC(=O)/C=C/c1ccco1 | inconclusive: 22.4 µM [cytotoxic, partial curve] | –
39 | CC[n+]1c(/C=C/N(C)c2ccccc2)oc2ccc(F)cc21 | inconclusive: 28.2 µM [cytotoxic, partial curve, poor fit] | –
40 | O=C(C(Br)=Cc1ccccc1)c1ccccc1 | active: 7.94 µM | –
41 | CC1CC(Nc2ccccc2)c2ccccc2N1C(=O)c1cccnc1 (stereo not given) | inconclusive: 22.4 µM [cytotoxic, single point] | –
42 | COc1ccccc1CNc1nc(NCc2cccc(OC)c2OC)c2sccc2n1 | inconclusive: 39.8 µM [cytotoxic, single point] | –
43 | Cc1ccc2ccc3cccnc3c2n1 | inconclusive: 10 µM [cytotoxic, partial curve] | –
44 | NC(=O)c1cccc(-c2ccnc3c2CC(C(=O)Nc2cccc(C(F)(F)F)c2)O3)c1 (stereo not given) | inconclusive: 3.16 µM [cytotoxic, partial curve, poor fit] | –
45 | CCOC(=O)c1sc2nc(CSc3ccccc3)nc(NCCN(C)C)c2c1C | inconclusive: 39.8 µM [cytotoxic, single point] | –
46 | Cc1occc1C(=O)N/N=C/c1c(O)ccc2ccccc12 | inconclusive: 8.91 µM [cytotoxic, partial curve] | –
47 | CSc1ncnc2c1ncn2CC(=O)C1CCC2C3CCC4=CC(=O)CCC4(C)C3CCC12C (stereo not given) | active: 17.8 µM | –
48 | CCN1CCN(C(=S)c2ccc(-c3ccccc3)cc2)CC1 | – | inactive: -12% [at 57.5 µM]

Row | Compound | Potency | activity change, negative = cytotoxicity
49 | CCn1c2ccccc2c2cc(NC(=O)COC(=O)c3ccccc3F)ccc21 | – | inactive: 2.58%
50 | Cc1ccccc1S(=O)(=O)Cc1ccc(C(=O)N2CCN(c3cccc(C)c3C)CC2)o1 | inconclusive: 2.82 µM [cytotoxic, partial curve] | –
51 | COc1ccc2oc(/C=C/N(C)C)c(C(=O)c3ccc(Cl)cc3)c2c1 | inconclusive: 39.8 µM [cytotoxic, partial curve, poor fit] | –
52 | CCn1c2ccccc2c2cc(NC(=O)COC(=O)c3cccc(S(=O)(=O)NC)c3)ccc21 | – | inactive: -19.4% [at 57.5 µM]
53 | CCc1ccc(N(CC)C(=O)c2ccc3c(Cl)c4c(nc3c2)CCC4)cc1 | – | inactive: -24.3%
54 | Oc1c(CN2CCOCC2)cc(COCc2ccccc2)c2cccnc12 | inconclusive: 10 µM [cytotoxic, partial curve] | –
55 | CC(C)C[C@H](NC(=O)c1[nH]cnc1C(=O)Nc1ccc(CNC(=O)OC(C)(C)C)cc1)C(=O)OCc1ccccc1 | inconclusive: 8.91 µM [cytotoxic, single point] | –
56 | CCN(CC)CCCNc1nc2ccccc2c2nc(-c3ccncc3)nn12 | active: 25.1 µM | –
57 | CCC(=O)NC(c1ccco1)c1cc(Br)c2cccnc2c1O (stereo not given) | inconclusive: 20 µM [cytotoxic, partial curve, poor fit] | –
58 | C/C(=N\OCC(=O)N/N=C/c1ccccc1O)c1cccs1 | inconclusive: 31.6 µM [cytotoxic, partial curve] | –
59 | O=C(Nc1ccc(Cl)c([N+](=O)[O-])c1)c1ccc(NCCCN2CCOCC2)c([N+](=O)[O-])c1 | inconclusive: 39.8 µM [cytotoxic, single point] | –
60 | O=C(CN1C(=O)c2ccccc2S1(=O)=O)c1ccc(Cl)cc1Cl | – | inactive: -6.86% [at 57.5 µM]
61 | CN1CCC(N(C)C(=O)c2ccc(Cl)c(S(=O)(=O)N3CCc4ccccc43)c2)CC1 | – | inactive: -25.1% [at 57.5 µM]
62 | N=c1n(CCCOc2ccccc2Cl)c2ccccc2n1CC(N)=O | inconclusive: 39.8 µM [cytotoxic, single point] | –
63 | COc1ccccc1Cc1c(-c2ccco2)nc2c(C)cc(Br)cn12 | active: 10 µM | –
64 | CCc1nc2ccccc2c(C(=O)OCC(=O)Nc2ccc(NC(C)=O)cc2)c1C | – | inactive: -22.7%
65 | CS(=O)(=O)c1ccc(Nc2nc(C(N)Cc3ccc(C(F)(F)F)cc3)cs2)cc1 (stereo not given) | inconclusive: 25.1 µM [cytotoxic, single point] | –
66 | Nc1c(C(=O)NCc2ccc(F)cc2)c2nc3ccccc3nc2n1CCCN1CCOCC1 | inconclusive: 4.47 µM [rising, partial curve] | –
67 | O=C1c2cccc3cc([N+](=O)[O-])cc(c23)C(=O)N1CCN1CCCC1 | active: 3.16 µM | –
68 | COc1ccc(CNc2ncnc3c2[nH]c2ccccc23)cc1 | inconclusive: 22.4 µM [cytotoxic, partial curve] | –
69 | CC(C)C(CCNCc1ccccn1)c1ccc(Cl)cc1 (stereo not given) | – | inactive: -16.9% [at 57.5 µM]
70 | OCCN1CCN(C(=S)c2ccc(-c3ccccc3)cc2)CC1 | – | inactive: -13% [at 57.5 µM]
